# The list shows a part of the results.
# B1: il2ra_site1_3nfp_normal_mot_HHH_b1_01763_000000277_0001_1_20_H_._e97b41f4e209c0640d4e43cb61b66542_0001_0001_0000600038_0000001_0 (protein)
# chain: DVEELVRLFRDAGSIEKAVEEALKLARRMGDPELERLLEEAKRLIQEGDPEEAEELLERFLRLLK
# B2: il2ra_site1_1z92_normal_mot_0a69b5c9b02373fb877a90f2b4b0d8e1_0001_1_af2_000000257_0001_17_32_H_._8e5dab46bb8b9fdb8a52196c49b730f0_0001_0001_0000400020_0000001_0 … (protein)
# chain: SELELSFRHALENGIPPRQVAKVLIRLLERRGLPPEEIERLIEEALEKVLNVPPEEAQEIIEKAE
# B3: il2ra_site1_3nfp_sap_12_mot_HHH_b2_02552_af2_000000235_0001_1_20_H_._HHH_b2_07743_0001_0000100007_0000001_0_0001_af2pred_0001_af2pred (protein)
# chain: SSSSEDEKLFEEAERLLEEAKKKGDPRLARRVDELIKLLAKLGDPELARRLFKLVEEIIRNSSSS
# B4: il2ra_site2_2erj_sap_24_mot_HHH_b2_00789_000000198_0001_40_54_H_._HHH_eva_0320_af2_0001_0000100002_0000001_0_0001 (protein)
# chain: SSSSDEHLRELFRLAVELLAAVARRDPELFEELLREVKRLAEELNNENAKEIVEDLERRFHSSSS
# B5: il2ra_site1_1z92_sap_12_mot_3cad0fa5fd511b0551b272d6504d3e9d_0001_1_000000015_0001_37_51_H_._c9a8daa1dfea21d1414aecde54be4f54_0001_1_0001_0000300011_0000001_0_0 … (protein)
# chain: SRLERDVRLILELAGDPEKAVRFVERFAKLLFERGDPEAAEELLEVAAEILGDPRLEELLEEIRK
# B6: il2ra_site1_3nfp_normal_mot_cc4219192d8ccd35c40e7b68f9a57604_0001_af2_000000124_0001_16_32_H_._HHH_b1_08473_0001_0000600030_0000001_0 (protein)
# chain: SSSSSQADEFLERLAEELFEEGDEKQIRAILKLVRHALETLGNPIAEEVARIIEELLEKLSSSSS
# B7: il2ra_site1_2b5i_sap_8_mot_HHH_b2_07920_000000157_0001_21_37_H_._HHH_b1_08163_0001_0000600024_0000001_0_0001 (protein)
# chain: SSSSSEAARRARELFHEADELDKRGNPEEAEEVLREALELAREAGSPNLARMIEAALRQLGSSSS
# B8: il2ra_site2_2erj_sap_26_mot_HHH_b1_00714_af2_000000008_0001_20_37_H_._22aa8d8ad8dce7f663ea8fa348a52261_0001_af2_0001_0000400012_0000001_0_0001 (protein)
# chain: SSSSSHEEEVERLLEEAREAYERGDLHEVYRLAAEAMHVASKHNDDELLQKIAEFIEELSSSSSS
# B9: il2ra_site2_3nfp_sap_28_mot_HHH_b1_03574_000000239_0001_1_18_H_._2f10428d1ec81e89baed431bc543484b_0001_1_0001_0001100038_0000001_0_0001 (protein)
# chain: SSSSDEEEREVRELLEEIQKLIEEGDPEKVEEALRRVANLVFEIGNFELFAEVAELLLEIASSSS
# B10: il2ra_site1_3nfp_sap_11_mot_1dfc56a8f07a39e834a69883c800ee5d_0001_1_af2_000000099_0001_1_15_H_._HHH_b1_01993_0001_0000100002_0000001_0_0001_af2pred_0001_1_af2pr … (protein)
# chain: SSSSSSSQELLRFVAELAEELGLSHEQSRELMHLLAKLLLRGISPEEIEEILKEYAERLSSSSSS
# B11: il2ra_site2_3nfp_sap_20_mot_HHH_b2_05281_000000198_0001_39_56_H_._c58d1d15de78a75bbff7b234e0f533b8_0001_af2_0001_0000200013_0000001_1_0001 (protein)
# chain: SSSSDKVEQLEEAVKRLIKEIPDPEDRRKLEELLEELEEEGDPELAFELFALAAELLYKYSSSSS
# B12: il2ra_site1_2b5i_sap_20_mot_HHH_b2_03886_000000131_0001_1_17_H_._092036b618aed672410521e3cd842e06_0001_1_0001_0000100001_0000001_0_0001_af2pred_dldesign_0_af2pr … (protein)
# chain: SSSSSDLKAEVLKLIEKARELAAAGKRREALELLEEAYKLADKLNDDALLDEIEALARELSSSSS
# B13: il2ra_site2_3nfp_sap_32_mot_HHH_b1_00548_000000069_0001_37_55_H_._871c942bffecba610830e7017620cd14_0001_1_af2_0001_0000400017_0000001_0_0001 (protein)
# chain: SSSSSEEVKELLEELKELLEKNDEERFRELVRRIAHLVFELNDEEAFYRLAELLLLFVRRRSSSS
# B14: il2ra_site2_2erj_normal_mot_HHH_b1_00376_000000139_0001_38_52_H_._ad785faee86527911bc0efce130472f5_0001_0001_0000400024_0000001_0 (protein)
# chain: SEEEEEELLREAGLSPAEIRFFLRQVQLLAERFNVPPEEAIKLLLEWAERLGNDNLERAAEVLLK
# B15: il2ra_site1_1z92_normal_mot_HHH_b2_04375_000000267_0001_42_56_H_._HHH_b2_04498_0001_0000200019_0000001_0_af2pred_0001_af2pred_1 (protein)
# chain: SSSSSDEEERIVEELIEELGGSEEVKRAAEKDAEIARKQGISEENIRKALERAIRFDIELSSSSS
# B16: il2ra_site1_2b5i_sap_20_mot_6169ea741eebcbe25a7a19b2986e1e54_0001_1_af2_000000158_0001_1_13_H_._15a03ae7649ebbac21f4683df9edff8e_0001_af2_0001_0000500038_000000 … (protein)
# chain: SSSSSSSLEEQVEELIELAEKEEDPLERERILKLARLVAKKAKDPELVARVEAKRAELSSSSSSS
# B17: il2ra_site2_3nfp_sap_12_mot_968ffe68aa11d68c04d2634bf871f227_0001_1_af2_000000211_0001_1_14_H_._ems_3hM_1371_0001_0000100004_0000001_0_0001 (protein)
# chain: SEVEELVERALEENDPRDLFAALADLQNLLDIPPREAREILLEIIEQILKVPPEEAEELLQKALQ
# B18: il2ra_site2_2erj_normal_mot_HHH_b2_08005_af2_000000017_0001_39_52_H_._HHH_b2_00725_0001_0000200028_0000001_0 (protein)
# chain: SSSSSERLHEAFEAASRLMHLAYRGDEEEFERLFEEILEKVEEAGDEVLAEAIREVFHTLTSSSS
# B19: il2ra_site2_3nfp_sap_9_mot_HHH_b1_07033_af2_000000007_0001_23_39_H_._b07f7a83e2292eca9764c844902b0b3e_0001_1_0001_0000600016_0000001_1_0001 (protein)
# chain: PEELVEEIIELIERGDPRAEEAAMKLAHEAWERNDPELFFVAALLAAAVFDGDPRYLEEAERSLR
# Target: il2ra, P01589
# Test: yeast display titration
row,Binder,apparent Kd
1,B1,inactive: no binding seen
2,B2,inactive: no binding seen
3,B3,inactive: no binding seen
4,B4,inactive: no binding seen
5,B5,inactive: no binding seen
6,B6,inactive: no binding seen
7,B7,inactive: no binding seen
8,B8,inactive: no binding seen
9,B9,inactive: no binding seen
10,B10,inactive: no binding seen
11,B11,inactive: no binding seen
12,B12,inactive: no binding seen
13,B13,inactive: no binding seen
14,B14,inactive: no binding seen
15,B15,inactive: no binding seen
16,B16,inactive: no binding seen
17,B17,inactive: no binding seen
18,B18,inactive: no binding seen
19,B19,inactive: no binding seen

# Single entries from above.
# Entry of B8 under apparent Kd: inactive: no binding seen
# Entry of B13 under apparent Kd: inactive: no binding seen

# — paper PMC10163288
